Reference: the supplement of paper PMC6411743
± gives the standard deviation of the averaged measurements. Some of the results follow.

Legend:
Assay in all cases: NP40-soluble protein abundance relative to vehicle (solubility fold change) (ratio); higher = more soluble protein in presence of GTP
PLD3 = target: T1, PLD3 (UniProt Q8IV08)
T1 sequence (whole entry): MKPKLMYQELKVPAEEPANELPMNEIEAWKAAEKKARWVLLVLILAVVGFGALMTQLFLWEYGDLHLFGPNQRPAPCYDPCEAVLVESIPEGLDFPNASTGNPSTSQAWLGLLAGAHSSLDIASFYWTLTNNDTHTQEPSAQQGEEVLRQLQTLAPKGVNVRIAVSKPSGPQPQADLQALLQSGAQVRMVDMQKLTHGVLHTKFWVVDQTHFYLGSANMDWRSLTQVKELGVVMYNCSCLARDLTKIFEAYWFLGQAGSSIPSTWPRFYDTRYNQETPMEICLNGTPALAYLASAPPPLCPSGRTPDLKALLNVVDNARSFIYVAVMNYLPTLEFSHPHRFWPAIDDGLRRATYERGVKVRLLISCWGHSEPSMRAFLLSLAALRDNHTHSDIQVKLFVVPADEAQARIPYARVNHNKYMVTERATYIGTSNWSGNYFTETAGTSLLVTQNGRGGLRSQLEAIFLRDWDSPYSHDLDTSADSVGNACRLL
In short: (§1)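 Eight concentrations, 0.1 to 10 mM, were tested on Jurkat crude lysate for 10 min at room temperature and then 3 min at 37 °C, in three independent experiments. The lysate was solubilised with 0.8% NP40 and benzonase, ultracentrifuged, and the supernatant TMT-labelled for LC-MS/MS. Each value is the fold change against the detergent-processed vehicle in its own replicate, from vsn-normalised intensities.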

RBM15B = target: T2, RBM15B (UniProt Q8NDT2)
T2 sequence (whole entry): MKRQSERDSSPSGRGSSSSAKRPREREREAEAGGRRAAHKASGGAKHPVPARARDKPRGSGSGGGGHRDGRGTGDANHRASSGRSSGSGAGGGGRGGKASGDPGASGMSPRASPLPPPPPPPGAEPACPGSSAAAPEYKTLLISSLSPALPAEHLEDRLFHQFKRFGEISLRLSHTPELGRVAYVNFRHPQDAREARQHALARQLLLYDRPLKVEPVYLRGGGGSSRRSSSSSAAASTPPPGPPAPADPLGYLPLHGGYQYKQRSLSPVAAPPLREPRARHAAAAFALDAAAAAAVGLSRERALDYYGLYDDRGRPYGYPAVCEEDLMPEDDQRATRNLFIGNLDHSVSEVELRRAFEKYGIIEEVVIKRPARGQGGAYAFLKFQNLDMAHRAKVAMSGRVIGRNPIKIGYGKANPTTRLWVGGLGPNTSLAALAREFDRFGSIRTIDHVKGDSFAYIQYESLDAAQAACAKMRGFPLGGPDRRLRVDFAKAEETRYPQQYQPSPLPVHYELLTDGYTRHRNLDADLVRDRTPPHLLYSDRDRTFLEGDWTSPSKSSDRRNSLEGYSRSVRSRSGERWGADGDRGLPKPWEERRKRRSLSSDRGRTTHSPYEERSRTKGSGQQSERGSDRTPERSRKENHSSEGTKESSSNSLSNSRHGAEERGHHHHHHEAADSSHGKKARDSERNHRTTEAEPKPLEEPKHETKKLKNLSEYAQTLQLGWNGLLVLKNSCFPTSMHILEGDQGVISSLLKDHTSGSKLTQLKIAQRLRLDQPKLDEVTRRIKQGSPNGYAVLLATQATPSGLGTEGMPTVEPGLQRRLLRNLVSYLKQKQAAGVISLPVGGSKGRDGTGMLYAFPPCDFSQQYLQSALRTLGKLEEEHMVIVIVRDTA
In short: as §1

SPATS2 = target: T3, SPATS2 (UniProt Q86XZ4)
T3 sequence (whole entry): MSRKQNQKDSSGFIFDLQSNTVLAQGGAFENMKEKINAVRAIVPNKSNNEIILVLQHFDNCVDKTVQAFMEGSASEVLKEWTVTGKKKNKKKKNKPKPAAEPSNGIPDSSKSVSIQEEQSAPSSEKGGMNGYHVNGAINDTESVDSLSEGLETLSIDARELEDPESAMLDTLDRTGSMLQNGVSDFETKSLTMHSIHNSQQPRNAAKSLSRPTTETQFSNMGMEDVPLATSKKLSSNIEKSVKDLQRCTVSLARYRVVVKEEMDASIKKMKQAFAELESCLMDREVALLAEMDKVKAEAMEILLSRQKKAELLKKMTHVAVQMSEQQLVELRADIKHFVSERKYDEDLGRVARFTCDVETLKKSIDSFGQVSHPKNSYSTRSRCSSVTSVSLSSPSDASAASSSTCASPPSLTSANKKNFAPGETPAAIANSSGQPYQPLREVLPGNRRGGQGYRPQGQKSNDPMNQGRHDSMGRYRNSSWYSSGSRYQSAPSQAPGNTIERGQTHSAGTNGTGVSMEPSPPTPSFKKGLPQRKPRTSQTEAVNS
In short: as §1

TBC1D10C = target: T4, TBC1D10C (UniProt Q8IV04)
T4 sequence (whole entry): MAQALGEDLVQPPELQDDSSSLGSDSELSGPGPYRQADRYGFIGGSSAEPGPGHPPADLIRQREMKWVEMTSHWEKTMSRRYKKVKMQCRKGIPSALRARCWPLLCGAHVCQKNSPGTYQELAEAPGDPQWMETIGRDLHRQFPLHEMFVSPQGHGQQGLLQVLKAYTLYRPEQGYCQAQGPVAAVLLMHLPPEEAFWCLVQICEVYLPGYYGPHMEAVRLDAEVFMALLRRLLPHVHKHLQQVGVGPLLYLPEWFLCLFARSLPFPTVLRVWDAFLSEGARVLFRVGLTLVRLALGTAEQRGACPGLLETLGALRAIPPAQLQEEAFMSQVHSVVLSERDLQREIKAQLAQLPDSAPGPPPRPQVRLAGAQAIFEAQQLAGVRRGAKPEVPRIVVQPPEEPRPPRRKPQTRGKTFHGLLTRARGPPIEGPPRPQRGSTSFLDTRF
In short: as §1

TTC9C = target: T5, TTC9C (UniProt Q8N5M4)
T5 sequence (whole entry): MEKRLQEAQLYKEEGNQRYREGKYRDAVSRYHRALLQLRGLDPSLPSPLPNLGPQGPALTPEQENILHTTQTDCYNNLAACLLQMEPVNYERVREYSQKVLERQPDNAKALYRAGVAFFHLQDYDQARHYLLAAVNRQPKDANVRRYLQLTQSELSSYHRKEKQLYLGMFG
In short: as §1

[1] = target: T6, UniProt Q8IWR0 and related entries
T6 sequence (whole entry): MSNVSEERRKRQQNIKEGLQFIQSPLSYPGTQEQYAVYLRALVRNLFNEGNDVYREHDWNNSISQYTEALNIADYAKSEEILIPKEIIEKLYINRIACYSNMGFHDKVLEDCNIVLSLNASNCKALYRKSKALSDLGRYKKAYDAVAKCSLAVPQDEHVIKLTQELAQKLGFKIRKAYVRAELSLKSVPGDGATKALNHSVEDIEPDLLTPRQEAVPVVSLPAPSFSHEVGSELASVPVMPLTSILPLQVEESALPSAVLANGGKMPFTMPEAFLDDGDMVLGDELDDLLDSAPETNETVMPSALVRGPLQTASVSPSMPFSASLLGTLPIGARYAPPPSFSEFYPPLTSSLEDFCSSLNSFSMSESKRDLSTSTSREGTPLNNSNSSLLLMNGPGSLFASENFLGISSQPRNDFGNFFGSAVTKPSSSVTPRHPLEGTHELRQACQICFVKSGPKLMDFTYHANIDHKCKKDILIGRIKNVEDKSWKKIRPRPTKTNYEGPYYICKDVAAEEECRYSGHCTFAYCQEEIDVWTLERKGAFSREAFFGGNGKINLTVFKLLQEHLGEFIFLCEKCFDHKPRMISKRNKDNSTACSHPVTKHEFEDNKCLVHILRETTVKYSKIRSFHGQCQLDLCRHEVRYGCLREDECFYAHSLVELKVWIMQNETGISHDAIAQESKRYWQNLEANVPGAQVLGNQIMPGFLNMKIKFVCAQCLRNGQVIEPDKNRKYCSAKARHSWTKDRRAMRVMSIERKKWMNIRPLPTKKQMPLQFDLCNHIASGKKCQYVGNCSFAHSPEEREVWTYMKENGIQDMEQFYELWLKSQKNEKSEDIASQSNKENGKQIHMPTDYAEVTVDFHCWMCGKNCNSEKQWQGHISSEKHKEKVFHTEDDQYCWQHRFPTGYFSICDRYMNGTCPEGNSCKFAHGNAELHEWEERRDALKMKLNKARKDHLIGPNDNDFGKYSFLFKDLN
In short: as §1

SMILES: Nc1nc2c(ncn2[C@@H]2O[C@H](COP(=O)(O)OP(=O)(O)OP(=O)(O)O)[C@@H](O)[C@H]2O)c(=O)[nH]1 [guanosine triphosphate]
- NP40-soluble protein abundance (PLD3; concentration: 1mM): 0.929 ± 0.026
- NP40-soluble protein abundance (PLD3; concentration: 2mM): 0.8918 ± 0.0076
- NP40-soluble protein abundance (PLD3; concentration: 4mM): 1.01 ± 0.069
- NP40-soluble protein abundance (PLD3; concentration: 6mM): 0.895 ± 0.042
- NP40-soluble protein abundance (PLD3; concentration: 8mM): 0.872 ± 0.048
- NP40-soluble protein abundance (PLD3; concentration: 10mM): 0.889 ± 0.026
- NP40-soluble protein abundance (RBM15B; concentration: 0.1mM): 1.02 ± 0.012
- NP40-soluble protein abundance (RBM15B; concentration: 0.5mM): 1.09 ± 0.033
- NP40-soluble protein abundance (RBM15B; concentration: 1mM): 1.09 ± 0.04
- NP40-soluble protein abundance (RBM15B; concentration: 2mM): 1.19 ± 0.032
- NP40-soluble protein abundance (RBM15B; concentration: 4mM): 1.2 ± 0.068
- NP40-soluble protein abundance (RBM15B; concentration: 6mM): 1.28 ± 0.062
- NP40-soluble protein abundance (RBM15B; concentration: 8mM): 1.3 ± 0.11
- NP40-soluble protein abundance (RBM15B; concentration: 10mM): 1.37 ± 0.096
- NP40-soluble protein abundance (SPATS2; concentration: 0.1mM): 1.05 ± 0.19
- NP40-soluble protein abundance (SPATS2; concentration: 0.5mM): 0.927 ± 0.11
- NP40-soluble protein abundance (SPATS2; concentration: 1mM): 0.916 ± 0.16
- NP40-soluble protein abundance (SPATS2; concentration: 2mM): 1.01 ± 0.08
- NP40-soluble protein abundance (SPATS2; concentration: 4mM): 1 ± 0.19
- NP40-soluble protein abundance (SPATS2; concentration: 6mM): 0.988 ± 0.025
- NP40-soluble protein abundance (SPATS2; concentration: 8mM): 1.11 ± 0.17
- NP40-soluble protein abundance (SPATS2; concentration: 10mM): 1.12 ± 0.042
- NP40-soluble protein abundance (TBC1D10C; concentration: 0.1mM): 1.05 ± 0.11
- NP40-soluble protein abundance (TBC1D10C; concentration: 0.5mM): 0.936 ± 0.067
- NP40-soluble protein abundance (TBC1D10C; concentration: 1mM): 1.01 ± 0.032
- NP40-soluble protein abundance (TBC1D10C; concentration: 2mM): 1.08 ± 0.097
- NP40-soluble protein abundance (TBC1D10C; concentration: 4mM): 1.005 ± 0.0028
- NP40-soluble protein abundance (TBC1D10C; concentration: 6mM): 0.976 ± 0.065
- NP40-soluble protein abundance (TBC1D10C; concentration: 8mM): 1.07 ± 0.055
- NP40-soluble protein abundance (TBC1D10C; concentration: 10mM): 1 ± 0.11
- NP40-soluble protein abundance (TTC9C; concentration: 0.1mM): 0.996 ± 0.1
- NP40-soluble protein abundance (TTC9C; concentration: 0.5mM): 1.06 ± 0.097
- NP40-soluble protein abundance (TTC9C; concentration: 1mM): 0.925 ± 0.13
- NP40-soluble protein abundance (TTC9C; concentration: 2mM): 0.917 ± 0.07
- NP40-soluble protein abundance (TTC9C; concentration: 4mM): 0.961 ± 0.16
- NP40-soluble protein abundance (TTC9C; concentration: 6mM): 1.02 ± 0.089
- NP40-soluble protein abundance (TTC9C; concentration: 8mM): 1.08 ± 0.033
- NP40-soluble protein abundance (TTC9C; concentration: 10mM): 1.07 ± 0.085
- NP40-soluble protein abundance ([1]; concentration: 0.1mM): 1.06 ± 0.094
- NP40-soluble protein abundance ([1]; concentration: 0.5mM): 0.985 ± 0.043
- NP40-soluble protein abundance ([1]; concentration: 1mM): 1.07 ± 0.077
- NP40-soluble protein abundance ([1]; concentration: 2mM): 1.1 ± 0.052
